Reference: US20110269211
The exact form of at least one protein or probe is not confirmed. Tags and fusion partners may be left off the protein sequences shown.

Tests used:
[1] = test system: T1, Kofu clone 5/7-A6 R410H,A550V,P450L,K480M,K505R,K562R,P743T,V767A (Artificial (KOD/Pfu chimera)); assay: activity assay; details: M13 primer extension, 2.5 mM MgCl2, 50 C; heparin elution 33.8 mS/cm; purified recombinant protein
T1 sequence (limits assumed): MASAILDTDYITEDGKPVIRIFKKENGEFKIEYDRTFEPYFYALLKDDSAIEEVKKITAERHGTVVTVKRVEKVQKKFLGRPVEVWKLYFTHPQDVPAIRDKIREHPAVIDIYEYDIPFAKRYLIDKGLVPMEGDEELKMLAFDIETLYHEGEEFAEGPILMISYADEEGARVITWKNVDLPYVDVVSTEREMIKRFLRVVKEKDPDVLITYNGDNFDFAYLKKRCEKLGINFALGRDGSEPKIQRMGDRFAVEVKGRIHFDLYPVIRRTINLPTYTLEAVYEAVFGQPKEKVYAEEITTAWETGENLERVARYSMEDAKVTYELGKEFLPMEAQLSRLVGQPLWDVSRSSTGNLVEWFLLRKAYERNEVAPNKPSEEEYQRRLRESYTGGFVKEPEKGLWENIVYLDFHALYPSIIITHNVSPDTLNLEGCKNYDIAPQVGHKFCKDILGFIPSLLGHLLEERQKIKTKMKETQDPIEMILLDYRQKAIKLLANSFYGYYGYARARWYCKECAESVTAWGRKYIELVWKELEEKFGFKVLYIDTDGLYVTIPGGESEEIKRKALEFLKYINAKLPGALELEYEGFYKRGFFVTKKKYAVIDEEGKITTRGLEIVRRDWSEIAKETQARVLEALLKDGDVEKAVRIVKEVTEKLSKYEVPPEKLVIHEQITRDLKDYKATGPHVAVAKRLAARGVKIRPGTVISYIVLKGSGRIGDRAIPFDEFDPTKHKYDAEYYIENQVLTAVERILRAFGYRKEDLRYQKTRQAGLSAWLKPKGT

[2] = test system: T2, Kofu clone 6/7-D5 F591L,L400H,G458V,I706V (Artificial (KOD/Pfu chimera)); assay: activity assay; details: M13 primer extension, 2.5 mM MgCl2, 50 C; heparin elution 40.7 mS/cm; purified recombinant protein
T2 sequence (limits assumed): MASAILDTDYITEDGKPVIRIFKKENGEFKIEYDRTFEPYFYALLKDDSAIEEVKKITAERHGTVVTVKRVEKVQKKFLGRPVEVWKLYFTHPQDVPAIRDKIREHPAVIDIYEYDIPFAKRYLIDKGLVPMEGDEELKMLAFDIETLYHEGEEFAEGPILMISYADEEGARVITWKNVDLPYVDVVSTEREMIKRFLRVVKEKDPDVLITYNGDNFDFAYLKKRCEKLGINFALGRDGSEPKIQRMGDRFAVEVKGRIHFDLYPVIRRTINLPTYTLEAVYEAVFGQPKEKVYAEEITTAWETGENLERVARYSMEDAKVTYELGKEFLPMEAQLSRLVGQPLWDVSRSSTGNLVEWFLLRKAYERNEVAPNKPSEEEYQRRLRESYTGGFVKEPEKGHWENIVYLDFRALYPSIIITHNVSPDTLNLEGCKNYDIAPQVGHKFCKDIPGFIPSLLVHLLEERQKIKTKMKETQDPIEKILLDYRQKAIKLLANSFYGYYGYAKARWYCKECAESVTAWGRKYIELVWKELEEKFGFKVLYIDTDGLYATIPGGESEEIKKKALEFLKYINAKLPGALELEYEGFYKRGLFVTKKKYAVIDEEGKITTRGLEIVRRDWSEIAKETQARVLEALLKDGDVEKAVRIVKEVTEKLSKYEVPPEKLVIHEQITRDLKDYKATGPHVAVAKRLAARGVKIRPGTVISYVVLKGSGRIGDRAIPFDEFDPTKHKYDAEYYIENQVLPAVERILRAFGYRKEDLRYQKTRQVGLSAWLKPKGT

“AACGCCAGGGTTTTCCCAGTCACGACGTTGTAAAACGACG” gave an activity on this sequence [1] of 3 fold vs Kofu and an activity on this sequence [2] of 7 fold vs Kofu.
